Data on one substance can be found in publication PMC8015805.

Protein sequences, listed by entry. Tags and fused reporters are not part of them.
UniProt P21454: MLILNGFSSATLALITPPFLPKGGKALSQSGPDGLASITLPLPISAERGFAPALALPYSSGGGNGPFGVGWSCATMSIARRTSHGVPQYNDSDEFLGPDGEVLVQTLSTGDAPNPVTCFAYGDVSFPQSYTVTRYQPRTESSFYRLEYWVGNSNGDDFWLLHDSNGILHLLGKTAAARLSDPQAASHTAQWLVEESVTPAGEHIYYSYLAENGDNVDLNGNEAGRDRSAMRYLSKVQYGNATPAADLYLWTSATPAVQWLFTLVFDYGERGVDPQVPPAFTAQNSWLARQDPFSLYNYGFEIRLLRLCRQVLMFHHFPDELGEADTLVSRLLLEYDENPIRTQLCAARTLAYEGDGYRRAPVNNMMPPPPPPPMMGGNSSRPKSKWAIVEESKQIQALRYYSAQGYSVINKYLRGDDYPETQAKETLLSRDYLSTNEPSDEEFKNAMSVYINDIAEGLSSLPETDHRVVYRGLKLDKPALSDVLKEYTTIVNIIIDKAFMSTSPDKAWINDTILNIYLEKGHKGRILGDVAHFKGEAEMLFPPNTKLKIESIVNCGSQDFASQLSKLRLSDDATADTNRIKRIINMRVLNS

No constants are given. Whether binding was seen depends on the method and setting. In cells and extracts the contact can be indirect. Sequences can lack the tags named with a protein.

One test deals with T1, FLAG-tagged IKKβ (UniProt O14920).
T1 sequence: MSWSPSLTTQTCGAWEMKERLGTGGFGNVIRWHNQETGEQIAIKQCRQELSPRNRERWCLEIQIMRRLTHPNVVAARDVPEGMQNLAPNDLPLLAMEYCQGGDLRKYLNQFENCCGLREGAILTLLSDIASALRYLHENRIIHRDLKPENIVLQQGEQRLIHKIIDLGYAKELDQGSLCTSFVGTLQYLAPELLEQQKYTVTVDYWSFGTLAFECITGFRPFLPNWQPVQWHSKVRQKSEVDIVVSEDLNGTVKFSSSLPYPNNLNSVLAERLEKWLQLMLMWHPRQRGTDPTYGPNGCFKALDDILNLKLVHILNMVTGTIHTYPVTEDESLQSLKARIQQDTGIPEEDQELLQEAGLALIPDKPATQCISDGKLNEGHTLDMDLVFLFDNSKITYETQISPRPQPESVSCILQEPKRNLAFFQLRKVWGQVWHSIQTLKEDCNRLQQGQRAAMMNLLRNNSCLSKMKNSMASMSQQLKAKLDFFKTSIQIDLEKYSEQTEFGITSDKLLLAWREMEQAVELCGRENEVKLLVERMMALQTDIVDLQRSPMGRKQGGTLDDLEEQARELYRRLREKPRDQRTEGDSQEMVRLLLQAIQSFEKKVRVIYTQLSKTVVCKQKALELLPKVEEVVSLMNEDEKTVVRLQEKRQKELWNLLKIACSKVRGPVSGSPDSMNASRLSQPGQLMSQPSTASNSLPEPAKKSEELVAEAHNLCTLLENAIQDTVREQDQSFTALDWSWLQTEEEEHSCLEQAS
Nature of the test: co-IP; 293T cells co-transfected for 24 h; lysed in RIPA buffer; precleared with protein A/G Plus-agarose; immunoprecipitated with anti-HA or anti-FLAG overnight at 4°C; blotted with anti-FLAG, anti-EGFP or anti-HA.

The target in the next test is T2, HA-tagged IKKα (UniProt O15111).
T2 sequence: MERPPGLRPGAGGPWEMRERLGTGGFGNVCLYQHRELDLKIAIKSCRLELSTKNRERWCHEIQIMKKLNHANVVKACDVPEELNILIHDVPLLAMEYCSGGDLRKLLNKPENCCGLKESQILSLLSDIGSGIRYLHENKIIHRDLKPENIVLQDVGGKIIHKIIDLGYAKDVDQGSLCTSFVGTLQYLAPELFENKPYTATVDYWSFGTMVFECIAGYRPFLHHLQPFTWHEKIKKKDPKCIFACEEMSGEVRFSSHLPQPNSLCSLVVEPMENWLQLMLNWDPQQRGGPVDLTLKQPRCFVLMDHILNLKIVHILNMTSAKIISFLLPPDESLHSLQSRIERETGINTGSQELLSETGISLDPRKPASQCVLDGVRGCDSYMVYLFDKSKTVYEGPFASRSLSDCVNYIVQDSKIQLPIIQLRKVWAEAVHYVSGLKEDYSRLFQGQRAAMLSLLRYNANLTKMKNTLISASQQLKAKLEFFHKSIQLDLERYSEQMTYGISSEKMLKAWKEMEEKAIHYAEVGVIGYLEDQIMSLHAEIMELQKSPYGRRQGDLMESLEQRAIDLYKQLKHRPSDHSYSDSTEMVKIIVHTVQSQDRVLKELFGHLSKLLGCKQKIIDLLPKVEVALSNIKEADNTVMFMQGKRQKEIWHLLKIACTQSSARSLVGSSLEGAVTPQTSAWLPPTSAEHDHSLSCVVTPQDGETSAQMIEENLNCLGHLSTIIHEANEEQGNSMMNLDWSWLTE
Described as above.

Regarding “EGFP-tagged SpvB (HA-SpvB-EGFP fusion protein) (from UniProt P21454 1-591)”, the binding entry in the test with FLAG-tagged IKKβ and with HA-tagged IKKα was “no binding” each time.
